# Source: patent US20240010681A1, “PEPTIDES AND METHODS OF USE” (REALTA LIFE SCIENCES, INC., priority 2020, published 2024)
# Not every detail of the peptide structures is certain; ends, links or a residue may be inferred. Square brackets hold non-standard residues; d marks the D form. Peptide text beside a SMILES is read from it. Sar = CNCC(=O)O
# Legend:
# [1] = test system: human umbilical vascular endothelial cell (HUVEC); assay: HUVEC 3-dimensional culture, LPS-stimulated non-VEGF mediated angiogenesis; details: 10 mg/ml of peptide; 10 ug/ml LPS; 18 hours
# [2] = test system: VEGF binding to VEGFR-2 (KDR); assay: VEGF Bioassay (Promega), bioluminescent reporter cells; details: increasing peptide concentrations, then human VEGF stimulation
# [3] = target: T1, human VEGF (Homo sapiens, UniProt P15692); assay: ELISA based binding to plate-coated VEGF; details: C1q positive control, RLS-0088 compared at 1 mg/ml
# T1 sequence (P15692 27-191 isoform P15692-4): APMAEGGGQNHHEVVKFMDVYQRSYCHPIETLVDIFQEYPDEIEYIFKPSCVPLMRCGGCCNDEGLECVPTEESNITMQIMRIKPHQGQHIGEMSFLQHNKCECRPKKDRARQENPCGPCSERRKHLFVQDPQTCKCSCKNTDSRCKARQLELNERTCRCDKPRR
structure (smiles),measurement,setting,value
"CC[C@H](C)[C@H](N)C(=O)N[C@@H](C)C(=O)N[C@@H](CC(C)C)C(=O)N[C@H](C(=O)N[C@@H](CC(C)C)C(=O)N[C@@H](CCC(=O)O)C(=O)N1CCC[C@H]1C(=O)N(C)CC(=O)N[C@@H](CS)C(=O)N[C@@H](CS)C(=O)N[C@@H](CCC(N)=O)C(=O)N[C@@H](CCC(=O)O)C(=O)N[C@@H](CCCNC(=N)N)C(=O)N[C@@H](C)C(=O)N[C@@H](C)C(=O)O)[C@@H](C)CC [RLS-0088, IALILEP(Sar)CCQERAA] (H-IALILEP[Sar]CCQERAA-OH; N-terminus and C-terminus assumed)",angiogenesis (sprouting and tube formation),[1],reduction in angiogenesis
same,inhibition of VEGF binding to VEGFR-2 and intracellular signaling (luminescence),[2],dose-dependent inhibition of intracellular signaling
same,binding to human VEGF (OD 450 nm),[3],much less pronounced
